Assay results from the supplement of paper PMC10849652.
The list shows a part of the results.

Sequences of proteins named here, by UniProt entry; tags and fusion partners are left off. A change or cut given only in a name is not applied to a line headed by its entry.
UniProt Q8N2U9: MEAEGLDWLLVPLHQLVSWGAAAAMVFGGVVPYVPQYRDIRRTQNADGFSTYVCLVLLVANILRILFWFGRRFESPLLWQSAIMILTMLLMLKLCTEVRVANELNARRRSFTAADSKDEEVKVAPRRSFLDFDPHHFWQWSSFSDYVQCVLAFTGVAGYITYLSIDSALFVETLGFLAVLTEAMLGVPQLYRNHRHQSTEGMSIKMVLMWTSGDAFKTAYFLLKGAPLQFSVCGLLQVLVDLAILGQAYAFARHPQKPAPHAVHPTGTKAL
UniProt Q8NBI5: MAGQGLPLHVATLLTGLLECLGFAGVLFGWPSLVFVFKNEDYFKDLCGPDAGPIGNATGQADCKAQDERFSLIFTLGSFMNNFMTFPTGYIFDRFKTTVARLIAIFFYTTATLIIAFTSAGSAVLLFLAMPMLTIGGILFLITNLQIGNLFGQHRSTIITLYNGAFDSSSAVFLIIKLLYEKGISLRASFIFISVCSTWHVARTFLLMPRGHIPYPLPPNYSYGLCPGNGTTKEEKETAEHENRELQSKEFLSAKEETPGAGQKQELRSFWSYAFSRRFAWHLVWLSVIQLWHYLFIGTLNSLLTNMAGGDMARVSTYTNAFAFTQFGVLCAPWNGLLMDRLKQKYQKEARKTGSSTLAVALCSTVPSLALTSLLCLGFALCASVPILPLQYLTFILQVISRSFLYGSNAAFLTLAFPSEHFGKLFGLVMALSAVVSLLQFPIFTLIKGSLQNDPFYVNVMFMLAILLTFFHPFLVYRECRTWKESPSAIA
UniProt Q6NXT4: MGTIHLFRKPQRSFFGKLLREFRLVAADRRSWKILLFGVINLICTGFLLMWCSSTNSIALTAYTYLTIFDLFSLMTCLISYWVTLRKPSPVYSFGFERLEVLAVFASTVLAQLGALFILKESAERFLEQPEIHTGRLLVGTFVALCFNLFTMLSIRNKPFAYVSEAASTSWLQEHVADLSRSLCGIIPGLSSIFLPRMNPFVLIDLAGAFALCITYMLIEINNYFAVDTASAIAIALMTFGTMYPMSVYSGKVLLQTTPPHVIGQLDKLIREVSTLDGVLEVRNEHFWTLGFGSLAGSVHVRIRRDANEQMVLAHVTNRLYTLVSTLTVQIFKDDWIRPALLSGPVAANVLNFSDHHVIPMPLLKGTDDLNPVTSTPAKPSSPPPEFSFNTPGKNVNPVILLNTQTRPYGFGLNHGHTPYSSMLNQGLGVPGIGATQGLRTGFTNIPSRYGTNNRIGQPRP
UniProt P50443: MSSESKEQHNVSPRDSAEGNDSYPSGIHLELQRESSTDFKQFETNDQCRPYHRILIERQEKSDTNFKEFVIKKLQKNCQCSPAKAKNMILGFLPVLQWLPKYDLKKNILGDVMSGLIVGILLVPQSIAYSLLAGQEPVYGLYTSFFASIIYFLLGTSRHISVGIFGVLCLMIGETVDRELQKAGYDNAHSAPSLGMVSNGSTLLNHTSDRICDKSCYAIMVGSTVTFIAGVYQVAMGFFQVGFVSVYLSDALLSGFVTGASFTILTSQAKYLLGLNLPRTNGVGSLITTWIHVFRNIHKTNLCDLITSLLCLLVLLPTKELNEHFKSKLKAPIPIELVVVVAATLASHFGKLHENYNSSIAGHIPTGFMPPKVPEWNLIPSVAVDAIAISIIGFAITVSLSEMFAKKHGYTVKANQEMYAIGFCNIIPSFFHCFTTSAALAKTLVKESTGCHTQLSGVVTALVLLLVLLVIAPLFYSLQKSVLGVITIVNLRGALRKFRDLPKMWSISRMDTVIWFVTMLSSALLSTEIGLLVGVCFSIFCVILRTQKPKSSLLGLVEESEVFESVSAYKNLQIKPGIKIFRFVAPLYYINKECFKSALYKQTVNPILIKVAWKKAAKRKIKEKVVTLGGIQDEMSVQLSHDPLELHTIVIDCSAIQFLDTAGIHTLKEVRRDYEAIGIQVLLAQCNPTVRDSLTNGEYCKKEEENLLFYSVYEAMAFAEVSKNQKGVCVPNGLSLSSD
UniProt Q5SVS4: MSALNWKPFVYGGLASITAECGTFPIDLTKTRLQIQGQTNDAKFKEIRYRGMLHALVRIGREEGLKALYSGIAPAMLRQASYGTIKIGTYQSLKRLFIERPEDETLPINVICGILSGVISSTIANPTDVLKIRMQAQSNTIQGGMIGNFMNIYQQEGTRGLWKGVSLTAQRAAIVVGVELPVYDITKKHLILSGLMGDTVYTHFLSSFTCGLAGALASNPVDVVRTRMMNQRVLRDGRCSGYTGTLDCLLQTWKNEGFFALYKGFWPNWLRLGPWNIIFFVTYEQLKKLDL
UniProt P14672: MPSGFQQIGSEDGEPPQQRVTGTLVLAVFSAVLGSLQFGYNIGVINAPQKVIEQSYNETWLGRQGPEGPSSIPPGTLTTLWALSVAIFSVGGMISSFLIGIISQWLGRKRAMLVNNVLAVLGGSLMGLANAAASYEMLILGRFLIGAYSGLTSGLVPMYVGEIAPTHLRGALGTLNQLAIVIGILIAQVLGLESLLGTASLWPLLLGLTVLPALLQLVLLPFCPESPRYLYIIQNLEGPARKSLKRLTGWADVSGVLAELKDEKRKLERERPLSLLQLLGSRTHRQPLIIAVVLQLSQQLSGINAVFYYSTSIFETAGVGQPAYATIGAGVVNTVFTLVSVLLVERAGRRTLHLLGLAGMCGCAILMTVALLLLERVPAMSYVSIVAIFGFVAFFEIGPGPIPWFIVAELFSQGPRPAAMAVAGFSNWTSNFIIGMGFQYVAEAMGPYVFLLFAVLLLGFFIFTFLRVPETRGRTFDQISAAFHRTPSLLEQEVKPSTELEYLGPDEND
UniProt Q96H78: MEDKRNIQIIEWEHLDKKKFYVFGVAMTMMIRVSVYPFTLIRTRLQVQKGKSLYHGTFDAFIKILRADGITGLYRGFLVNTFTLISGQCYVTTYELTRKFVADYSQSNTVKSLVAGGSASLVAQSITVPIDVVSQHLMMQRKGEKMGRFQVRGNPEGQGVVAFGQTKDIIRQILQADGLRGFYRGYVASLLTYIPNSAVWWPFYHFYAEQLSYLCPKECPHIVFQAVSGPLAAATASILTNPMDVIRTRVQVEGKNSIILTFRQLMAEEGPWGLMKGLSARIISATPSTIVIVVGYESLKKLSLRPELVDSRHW
UniProt Q7Z2H8: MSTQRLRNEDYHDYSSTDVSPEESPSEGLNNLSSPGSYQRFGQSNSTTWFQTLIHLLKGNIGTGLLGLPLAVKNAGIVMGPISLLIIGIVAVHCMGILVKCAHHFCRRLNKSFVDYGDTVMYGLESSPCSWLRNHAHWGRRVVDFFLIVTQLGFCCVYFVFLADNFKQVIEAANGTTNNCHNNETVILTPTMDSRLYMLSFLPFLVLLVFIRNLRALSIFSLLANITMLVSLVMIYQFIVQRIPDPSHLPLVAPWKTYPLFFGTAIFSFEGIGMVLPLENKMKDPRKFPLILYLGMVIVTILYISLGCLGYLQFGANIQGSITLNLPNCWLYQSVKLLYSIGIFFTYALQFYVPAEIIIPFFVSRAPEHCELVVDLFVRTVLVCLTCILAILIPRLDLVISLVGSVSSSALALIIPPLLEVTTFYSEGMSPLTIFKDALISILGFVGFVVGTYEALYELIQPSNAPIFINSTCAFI
UniProt A1A5C7: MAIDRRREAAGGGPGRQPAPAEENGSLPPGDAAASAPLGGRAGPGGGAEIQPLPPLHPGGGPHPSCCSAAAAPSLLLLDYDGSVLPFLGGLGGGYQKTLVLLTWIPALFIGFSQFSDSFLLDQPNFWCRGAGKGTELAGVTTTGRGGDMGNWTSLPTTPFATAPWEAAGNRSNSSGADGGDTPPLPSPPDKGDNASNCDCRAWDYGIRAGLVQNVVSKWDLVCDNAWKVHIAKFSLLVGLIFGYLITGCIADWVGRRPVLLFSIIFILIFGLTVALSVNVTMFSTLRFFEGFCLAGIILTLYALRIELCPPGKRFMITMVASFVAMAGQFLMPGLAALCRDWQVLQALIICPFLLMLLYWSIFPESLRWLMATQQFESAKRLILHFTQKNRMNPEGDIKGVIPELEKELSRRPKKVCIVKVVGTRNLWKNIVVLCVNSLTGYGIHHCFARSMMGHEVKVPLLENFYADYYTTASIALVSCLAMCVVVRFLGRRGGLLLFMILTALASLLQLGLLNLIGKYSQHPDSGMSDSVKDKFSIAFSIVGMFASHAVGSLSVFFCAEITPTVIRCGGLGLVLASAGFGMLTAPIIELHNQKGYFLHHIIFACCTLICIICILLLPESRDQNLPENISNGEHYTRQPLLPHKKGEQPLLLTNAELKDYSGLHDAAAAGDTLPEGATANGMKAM
UniProt O14975, whole entry, looked up: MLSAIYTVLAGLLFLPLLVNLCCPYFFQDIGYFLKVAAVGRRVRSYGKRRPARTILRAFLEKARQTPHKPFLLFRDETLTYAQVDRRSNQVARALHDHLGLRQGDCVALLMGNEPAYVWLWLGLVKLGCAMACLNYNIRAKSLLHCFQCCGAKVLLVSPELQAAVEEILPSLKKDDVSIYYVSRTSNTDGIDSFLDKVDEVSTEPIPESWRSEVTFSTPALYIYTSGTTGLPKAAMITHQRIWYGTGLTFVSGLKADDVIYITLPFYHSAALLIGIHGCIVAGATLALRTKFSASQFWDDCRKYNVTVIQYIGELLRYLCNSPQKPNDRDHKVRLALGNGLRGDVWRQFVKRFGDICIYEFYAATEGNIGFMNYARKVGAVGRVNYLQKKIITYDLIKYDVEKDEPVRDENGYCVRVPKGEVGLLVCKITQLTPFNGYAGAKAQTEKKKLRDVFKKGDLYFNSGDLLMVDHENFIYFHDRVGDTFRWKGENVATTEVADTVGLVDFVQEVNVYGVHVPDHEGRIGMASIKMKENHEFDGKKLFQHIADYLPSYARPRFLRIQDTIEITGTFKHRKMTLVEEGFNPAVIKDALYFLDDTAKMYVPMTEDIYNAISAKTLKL
UniProt Q9H936: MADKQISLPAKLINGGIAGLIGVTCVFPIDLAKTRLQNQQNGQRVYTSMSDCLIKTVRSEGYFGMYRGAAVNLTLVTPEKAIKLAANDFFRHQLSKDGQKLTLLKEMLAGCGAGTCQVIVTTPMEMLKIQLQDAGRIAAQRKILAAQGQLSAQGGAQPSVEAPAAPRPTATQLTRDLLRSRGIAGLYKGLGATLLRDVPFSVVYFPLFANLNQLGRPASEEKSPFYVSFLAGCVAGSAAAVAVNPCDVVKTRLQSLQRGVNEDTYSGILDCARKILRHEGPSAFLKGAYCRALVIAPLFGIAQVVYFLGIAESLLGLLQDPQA
UniProt Q8WWI5: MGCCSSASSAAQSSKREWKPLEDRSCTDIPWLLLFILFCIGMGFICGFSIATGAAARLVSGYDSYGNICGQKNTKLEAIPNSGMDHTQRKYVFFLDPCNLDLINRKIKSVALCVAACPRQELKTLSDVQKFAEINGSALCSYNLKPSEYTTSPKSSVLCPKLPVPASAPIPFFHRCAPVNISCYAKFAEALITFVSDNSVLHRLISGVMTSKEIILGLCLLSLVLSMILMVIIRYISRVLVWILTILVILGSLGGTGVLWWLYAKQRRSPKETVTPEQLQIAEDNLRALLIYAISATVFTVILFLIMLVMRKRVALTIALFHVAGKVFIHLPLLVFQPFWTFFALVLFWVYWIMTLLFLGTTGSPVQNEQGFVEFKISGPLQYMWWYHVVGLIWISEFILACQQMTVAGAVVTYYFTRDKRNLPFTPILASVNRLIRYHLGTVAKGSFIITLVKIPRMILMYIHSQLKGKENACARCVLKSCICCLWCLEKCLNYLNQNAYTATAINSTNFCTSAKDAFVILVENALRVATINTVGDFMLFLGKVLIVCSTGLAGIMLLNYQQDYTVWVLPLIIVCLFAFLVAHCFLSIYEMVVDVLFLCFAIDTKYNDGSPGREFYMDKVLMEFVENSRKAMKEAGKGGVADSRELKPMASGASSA
UniProt Q86UD5: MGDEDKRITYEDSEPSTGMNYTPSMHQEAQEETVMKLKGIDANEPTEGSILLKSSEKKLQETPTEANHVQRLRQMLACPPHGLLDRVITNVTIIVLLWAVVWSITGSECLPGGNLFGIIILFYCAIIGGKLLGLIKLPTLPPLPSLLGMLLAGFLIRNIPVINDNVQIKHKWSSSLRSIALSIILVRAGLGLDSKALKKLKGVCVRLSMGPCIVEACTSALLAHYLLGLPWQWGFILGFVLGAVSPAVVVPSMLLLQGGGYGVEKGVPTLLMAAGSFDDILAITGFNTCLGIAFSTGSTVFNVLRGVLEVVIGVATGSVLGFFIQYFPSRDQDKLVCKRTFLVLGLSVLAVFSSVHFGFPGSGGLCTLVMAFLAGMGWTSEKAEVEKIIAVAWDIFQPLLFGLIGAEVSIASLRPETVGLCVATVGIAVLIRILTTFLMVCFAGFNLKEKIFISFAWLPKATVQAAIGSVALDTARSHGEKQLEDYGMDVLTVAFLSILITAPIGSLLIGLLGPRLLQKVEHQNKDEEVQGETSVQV

Experiments:
Experiment in all cases: log2 fold change, soluble protein after heating vs DMSO (PISA); higher = thermal stabilisation; K562 lysate, 10 uM; active = over 0.2 and 3.5 SD of the protein, either way, in both replicates (recomputed)
ibrutinib = compound: C=CC(=O)N1CCC[C@@H](n2nc(-c3ccc(Oc4ccccc4)cc3)c3c(N)ncnc32)C1 [ibrutinib]
Summary of the method: (§1)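 K562 pellets were dounce-homogenised in PBS pH 7.4 containing 1 mM MgCl2, and the crude extract, at 1 mg/mL protein, was exposed to 10 μM compound for 30 min. Aliquots were heated for 3 min across 48°C-58°C, pooled, brought to 0.5% NP-40 at 4°C and spun at 21,000xg for 90 min, with the supernatant taken as soluble protein. TMTpro 16plex LC-MS/MS with equalised channel sums quantified that protein. Values are log-two fold changes in thermal stability relative to solvent controls, taken from duplicates.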

[1] = compound: CC(=O)c1cnc2ccc(-c3cc(Cl)c(O)c(Cl)c3)nc2c1N[C@H]1CC[C@H](CN(C)C)CC1
Summary of the method: as §1

ralimetinib = compound: CC(C)(C)Cn1c(N)nc2ccc(-c3[nH]c(C(C)(C)C)nc3-c3ccc(F)cc3)nc21 [ralimetinib]
Summary of the method: as §1

[2] = compound: CC(C)(O)CC(=O)NCCn1ccc2ncnc(Nc3ccc(Oc4cccc(C(F)(F)F)c4)c(Cl)c3)c21
Summary of the method: as §1

[3] = compound: CC(C)C1=C2N=C(C=C(N2N=C1)NCC3=CC=CC=C3)NCCCCCCN
Summary of the method: as §1

[4] = compound: CC1=C(C(CC(=O)N1)C2=CC=C(C=C2)C(F)(F)F)C(=O)NC3=C(C=C4C(=C3)C=NN4)F
Summary of the method: as §1

[5] = compound: CC1=C(C2=C(C=C1)C(=O)C3=CC=CC=C3N2CCCN)C
Summary of the method: as §1

[6] = compound: CC1=C(C=C(C=C1)NC(=O)C2=CC(=CC=C2)N(C)C)NC(=O)C3=CC=C(C=C3)O
Summary of the method: as §1

[7] = compound: CC1=CC=C(C=C1)SC2=C3C=C(SC3=CN=C2)C(=O)N
Summary of the method: as §1

[8] = compound: CC1=C(C=C(C=C1)NC(=O)C2=CC(=CC=C2)C(C)(C)C#N)NC3=CC4=C(C=C3)N=CN(C4=O)C
Summary of the method: as §1

Measured: log2 fold change

SLC66A2 (UniProt Q8N2U9)
inactive: ibrutinib -0.119 | [1] 0.006 | ralimetinib 0.015 | [2] -0.109 | [3] -0.262 | [4] 0.038 | [5] 0.042 | [6] 0.082 | [7] -0.063

SLC43A3 isoform 2 (UniProt Q8NBI5)
inactive: ibrutinib 0.006 | [1] 0.023 | ralimetinib 0.028 | [2] -0.014 | [3] -0.024 | [4] 0.003 | [5] -0.026 | [8] 0 | [6] 0.007 | [7] 0.003

SLC25A6 (UniProt P12236)
inactive: ibrutinib -0.029 | [1] -0.015 | ralimetinib 0.03 | [2] -0.003 | [3] 0.031 | [4] 0.007 | [5] -0.001 | [8] 0.01 | [6] -0.007 | [7] 0.035

SLC30A6 isoform 2 (UniProt Q6NXT4)
inactive: ibrutinib 0.052 | [1] -0.019 | ralimetinib -0.013 | [2] -0.016 | [3] -0.023 | [4] 0.047 | [8] -0.022 | [6] 0.053 | [7] 0.011

SLC26A2 (UniProt P50443)
inactive: ibrutinib -0.284 | [1] -0.041 | ralimetinib 0.033 | [2] -0.1 | [3] -0.02 | [5] 0.028 | [8] 0.017 | [6] 0.102 | [7] -0.01

SLC52A2 (UniProt Q9HAB3)
inactive: ibrutinib 0.063 | [1] -0.053 | ralimetinib -0.023 | [2] -0.057 | [3] 0.014 | [5] -0.05 | [8] 0.016 | [6] -0.077 | [7] -0.168

SLC2A3 (UniProt P11169)
inactive: ibrutinib 0.005 | [1] 0.02 | ralimetinib -0.002 | [2] 0 | [3] -0.024 | [4] -0.032 | [5] -0.035 | [8] -0.014 | [6] 0.022 | [7] -0.026

SLC29A2 (UniProt Q14542)
inactive: ibrutinib 0.035 | [1] 0.045 | ralimetinib 0.082 | [2] -0.036 | [3] 0.043 | [4] -0.001 | [5] -0.011 | [8] 0.041 | [6] 0.072 | [7] 0.006

SLC6A8 (UniProt P48029)
inactive: ibrutinib 0.05 | [1] 0.022 | ralimetinib 0 | [2] -0.004 | [3] -0.018 | [4] -0.037 | [5] -0.007 | [8] -0.032 | [6] 0.239 | [7] -0.03

SLC39A7 (UniProt Q92504)
inactive: ibrutinib 0.022 | [1] -0.039 | ralimetinib 0.046 | [2] -0.086 | [3] 0.034 | [4] -0.009 | [8] 0.031 | [6] -0.006 | [7] -0.052

SLC35F2 (UniProt Q8IXU6)
inactive: ibrutinib 0.005 | [1] -0.015 | ralimetinib -0.01 | [2] 0 | [3] -0.063 | [4] 0.033 | [5] 0.077 | [6] -0.032 | [7] 0.03

SLC25A30 (UniProt Q5SVS4)
inactive: ibrutinib 0.037 | [1] -0.013 | ralimetinib -0.019 | [2] -0.113 | [3] 0.017 | [4] 0.13 | [5] -0.249 | [8] -0.033 | [6] 0.008 | [7] 0.037

SLC2A4 (UniProt P14672)
inactive: ibrutinib -0.077 | [1] -0.043 | ralimetinib -0.018 | [2] 0.077 | [3] -0.182 | [5] -0.03 | [8] -0.074 | [6] 0.126 | [7] -0.01

SLC38A10 (UniProt Q9HBR0)
inactive: ibrutinib 0.103 | [1] -0.047 | ralimetinib -0.025 | [2] -0.056 | [3] -0.007 | [4] -0.051 | [5] -0.018 | [8] 0.032 | [6] -0.001 | [7] -0.027

SLC35E1 (UniProt Q96K37)
inactive: ibrutinib 0.011 | [1] 0.04 | ralimetinib 0.051 | [2] -0.014 | [3] 0.053 | [5] 0.006 | [8] 0.064 | [6] -0.021 | [7] -0.03

SLC25A44 (UniProt Q96H78)
inactive: ibrutinib -0.006 | [1] 0.002 | ralimetinib 0.065 | [2] -0.322 | [3] -0.031 | [5] -0.017 | [8] 0.038 | [6] -0.118 | [7] 0.002

SLC36A1 (UniProt Q7Z2H8)
inactive: ibrutinib -0.002 | [1] -0.007 | ralimetinib 0.009 | [2] -0.003 | [3] 0.113 | [4] -0.031 | [5] -0.005 | [8] -0.086 | [6] -0.009 | [7] -0.027

SLC9A6 isoform 2 (UniProt Q92581)
inactive: ibrutinib 0.05 | [1] -0.002 | ralimetinib -0.005 | [2] 0.019 | [3] -0.06 | [5] -0.021 | [8] -0.021 | [6] 0.091 | [7] 0.008

SLC39A10 (UniProt Q9ULF5)
inactive: ibrutinib 0.045 | [1] -0.049 | ralimetinib 0.05 | [2] 0.019 | [3] -0.027 | [4] 0.012 | [5] 0.027 | [8] -0.031 | [6] -0.009 | [7] -0.02

SLC22A23 (UniProt A1A5C7)
inactive: ibrutinib 0.128 | [1] -0.062 | ralimetinib -0.053 | [2] -0.022 | [3] -0.038 | [5] -0.093 | [8] 0.058 | [6] 0.027 | [7] -0.081

SMAP1 isoform 2 (UniProt Q8IYB5)
inactive: ibrutinib 0.003 | [1] 0.026 | ralimetinib -0.026 | [2] -0.002 | [3] 0.002 | [4] 0.022 | [5] 0.008 | [8] 0.029 | [6] -0.01 | [7] -0.018

SLC35B4 (UniProt Q969S0)
inactive: ibrutinib 0.051 | [1] 0.065 | ralimetinib -0.033 | [2] -0.102 | [3] 0.009 | [4] -0.004 | [8] 0.139 | [6] 0.005 | [7] 0.047

SLC35C1 (UniProt Q96A29)
inactive: ibrutinib -0.033 | [1] 0 | ralimetinib -0.01 | [2] 0.288 | [3] -0.172 | [4] -0.031 | [8] -0.06 | [6] 0.235 | [7] 0.061

SLC39A1 (UniProt Q9NY26)
inactive: ibrutinib -0.031 | [1] 0.169 | ralimetinib -0.007 | [2] 0.011 | [3] 0 | [5] 0.044 | [8] -0.026 | [6] 0.116 | [7] -0.103

Two records drawn at random from those above:
SLC39A7 (UniProt Q92504)
inactive: ibrutinib 0.022 | [1] -0.039 | ralimetinib 0.046 | [2] -0.086 | [3] 0.034 | [4] -0.009 | [8] 0.031 | [6] -0.006 | [7] -0.052

SLC35E1 (UniProt Q96K37)
inactive: ibrutinib 0.011 | [1] 0.04 | ralimetinib 0.051 | [2] -0.014 | [3] 0.053 | [5] 0.006 | [8] 0.064 | [6] -0.021 | [7] -0.03

Remaining list, next part

SLC3A2 (UniProt F5GZS6)
inactive: ibrutinib -0.111 | [1] 0.089 | ralimetinib 0.014 | [2] -0.158 | [3] 0.079 | [4] -0.115 | [5] -0.067 | [6] 0.155 | [7] -0.107

SLC27A2 (UniProt O14975)
inactive: ibrutinib 0.243 | [1] -0.024 | ralimetinib -0.013 | [2] 0.245 | [3] 0.11 | [4] -0.041 | [5] -0.035 | [8] 0.069 | [6] -0.089 | [7] 0.031

SLC25A22 (UniProt Q9H936)
inactive: ibrutinib -0.01 | [1] -0.004 | ralimetinib 0 | [2] -0.014 | [3] 0.013 | [4] -0.013 | [5] 0.014 | [8] 0.035 | [6] -0.008 | [7] 0.037

SLC27A6 (UniProt Q9Y2P4)
inactive: [3] 0.159

SLU7 (UniProt O95391)
inactive: ibrutinib -0.084 | ralimetinib -0.013 | [2] -0.018 | [3] 0.045 | [4] -0.029 | [5] -0.015 | [8] 0 | [6] -0.031

SLC44A1 (UniProt Q8WWI5)
inactive: ralimetinib 0.117 | [2] -0.263 | [5] -0.237 | [6] -0.012

SLC38A7 (UniProt Q9NVC3)
inactive: ibrutinib 0.041 | [1] -0.158 | [3] 0.085 | [4] 0.055 | [5] 0.052 | [8] 0.091 | [7] 0.057

SLC9B2 (UniProt Q86UD5)
inactive: [1] -0.029 | ralimetinib -0.16 | [2] -0.176 | [8] -0.167 | [6] 0.034 | [7] -0.036

SLC25A28 (UniProt Q96A46)
inactive: [8] 0.168
